Marks after values point to notes of the source that are not given here. Residues, ends and D or L forms follow the SMILES beside them. *: point of attachment. Cam = NC(=O)C*
Experiments:
Assay type in all cases: cell-based
human red blood cells = details: for SI2 improvement ratio in comparison with AR: ratio of SI2 of the peptide to SI2 of native AR; for SI3 improvement ratio in comparison with AR: ratio of SI3 of the peptide to SI3 of native AR; for SI3 assessment HC15/G-MIC: selectivity index: HC15 / G-MIC; for SI2 assessment HC50/G-MIC: selectivity index: HC50 / G-MIC
[1] = system: human erythroleukemia K-562 cells; details: for SI1 improvement ratio in comparison with AR: ratio of SI1 of the peptide to SI1 of native AR; for SI1 assessment IC50/G-MIC: selectivity index: K-562 IC50 / G-MIC
Procedure: The standard MTT ((3-(4,5-Dimethylthiazol-2-yl)-2,5-diphenyltetrazolium bromide) test was used for the examination of the cytotoxic activity of AMPs towards human erithroleukemia cells K-562. The cells were purchased from Biolot (Saint Petersburg, Russia) and were grown in RPMI 1640 medium (Biolot, Saint Petersburg, Russia) supplemented with glutamine and 10% FCS. Before the experiment, the culturing medium was replaced with serum-free RPMI 1640. Serial dilutions of the peptides in RPMI were plated in sterile 96-well microplates, and the target cells were dispensed to the microplates (10^5 cells/well in RPMI 1640). The plates were incubated for 24 h at 37 °C under 5% CO2. Cell-free media and cells incubated without peptides served as controls. Four hours before the incubation ended, MTT in PBS (5 mg/mL) was added to each well. After the incubation was stopped by adding isopropanol/ 0.04 M HCl, the optical density was measured at 540 nm, subtracting the background absorbance at 690 nm. Toxicity was determined by nonlinear regression analysis of the corresponding dose–response curves using the Sigma Plot 11 program to calculate the IC50 values (the concentration of the test substance that reduced the OD540 capacity by 50%).

[2] = system: set of Gram-negative and Gram-positive bacteria, including drug-resistant clinical isolates; details: ratio of G-MIC of native AR to G-MIC of the peptide; * = higher overall activity than AR
Procedure: To obtain a global assessment of the effect on antimicrobial activity, the geometric mean of the MIC (G-MIC) was calculated, and from this, the overall improvement or impoverishment with respect to arenicin-1. In general, inverting the symmetry or decreasing the charge had detrimental effects.
The overall activity against a set of tested bacterial strains was determined by way of the commonly used geometric mean of measured MIC values. […] At the same time, the geometric mean can still discriminate antimicrobial agents showing minor variations in activity; in other words, it has a better “resolution” than the median MIC (MIC50). Some mathematical basics for choosing the geometric mean for antimicrobial activity comparison are further discussed in the Supplementary Chapter S3.

## CC(C)C[C@@H]1NC(=O)[C@H](C(C)C)NC(=O)CNC(=O)[C@H](CCCNC(=N)N)NC(=O)[C@H](C(C)C)NC(=O)[C@H](CCCNC(=N)N)NC(=O)[C@H](C(C)C)NC(=O)[C@H](Cc2ccc(O)cc2)NC(=O)[C@H](C)NC(=O)[C@H](Cc2ccc(O)cc2)NC(=O)[C@H](C(C)C)NC(=O)[C@@H](NC(=O)[C@H](Cc2c[nH]c3ccccc23)NC(=O)[C@@H](N)CCCNC(=N)N)CSSC[C@@H](C(=O)N[C@@H](Cc2c[nH]c3ccccc23)C(=O)O)NC(=O)[C@H](CCCNC(=N)N)NC(=O)[C@H](CCCNC(=N)N)NC(=O)[C@H](Cc2ccc(O)cc2)NC(=O)[C@H](CCCNC(=N)N)NC(=O)[C@H](C(C)C)NC1=O [AR, Arenicin-1] (HELM PEPTIDE1{R.W.C.V.Y.A.Y.V.R.V.R.G.V.L.V.R.Y.R.R.C.W}$PEPTIDE1,PEPTIDE1,3:R3-20:R3$$$V2.0)
Human red blood cells
  SI2 improvement ratio in comparison with AR: 1.0
  SI3 improvement ratio in comparison with AR: 1.0
  SI3 assessment HC15/G-MIC: 3.8
  SI2 assessment HC50/G-MIC: 24.6
[1]
  SI1 improvement ratio in comparison with AR: 1.0
  SI1 assessment IC50/G-MIC: 6.6
[2]
  G-MIC improvement ratio in comparison with AR: 1.0

## CC(C)C[C@@H]1NC(=O)[C@H](C(C)C)NC(=O)CNC(=O)[C@H](CCCNC(=N)N)NC(=O)[C@H](C(C)C)NC(=O)[C@H](CCCNC(=N)N)NC(=O)[C@H](C(C)C)NC(=O)[C@H](Cc2ccc(O)cc2)NC(=O)[C@H](C)NC(=O)[C@H](Cc2ccc(O)cc2)NC(=O)[C@H](C(C)C)NC(=O)[C@@H](NC(=O)[C@H](Cc2ccccc2)NC(=O)[C@@H](N)CCCNC(=N)N)CSSC[C@@H](C(=O)N[C@@H](Cc2ccccc2)C(=O)O)NC(=O)[C@H](CCCNC(=N)N)NC(=O)[C@H](CCCNC(=N)N)NC(=O)[C@H](Cc2ccc(O)cc2)NC(=O)[C@H](CCCNC(=N)N)NC(=O)[C@H](C(C)C)NC1=O [AR-F] (HELM PEPTIDE1{R.F.C.V.Y.A.Y.V.R.V.R.G.V.L.V.R.Y.R.R.C.F}$PEPTIDE1,PEPTIDE1,3:R3-20:R3$$$V2.0; N-terminus and C-terminus assumed)
Human red blood cells
  SI2 improvement ratio in comparison with AR: 1.4
  SI3 improvement ratio in comparison with AR: 1.6
  SI3 assessment HC15/G-MIC: 6.0
  SI2 assessment HC50/G-MIC: 34.0
[1]
  SI1 improvement ratio in comparison with AR: 0.8
  SI1 assessment IC50/G-MIC: 5.2
[2]
  G-MIC improvement ratio in comparison with AR: 1.5 *

## CC(C)C[C@@H]1NC(=O)[C@H](C(C)C)NC(=O)CNC(=O)[C@H](CCCCN)NC(=O)[C@H](C(C)C)NC(=O)[C@H](CCCCN)NC(=O)[C@H](C(C)C)NC(=O)[C@H](Cc2ccc(O)cc2)NC(=O)[C@H](C)NC(=O)[C@H](Cc2ccc(O)cc2)NC(=O)[C@H](C(C)C)NC(=O)[C@@H](NC(=O)[C@H](Cc2c[nH]c3ccccc23)NC(=O)[C@@H](N)CCCCN)CSSC[C@@H](C(=O)N[C@@H](Cc2c[nH]c3ccccc23)C(=O)O)NC(=O)[C@H](CCCCN)NC(=O)[C@H](CCCCN)NC(=O)[C@H](Cc2ccc(O)cc2)NC(=O)[C@H](CCCCN)NC(=O)[C@H](C(C)C)NC1=O [AR-K] (HELM PEPTIDE1{K.W.C.V.Y.A.Y.V.K.V.K.G.V.L.V.K.Y.K.K.C.W}$PEPTIDE1,PEPTIDE1,3:R3-20:R3$$$V2.0; N-terminus assumed)
Human red blood cells
  SI2 improvement ratio in comparison with AR: 1.3
  SI3 improvement ratio in comparison with AR: 1.4
  SI3 assessment HC15/G-MIC: 5.3
  SI2 assessment HC50/G-MIC: 33.1
[1]
  SI1 improvement ratio in comparison with AR: 0.6
  SI1 assessment IC50/G-MIC: 4.0
[2]
  G-MIC improvement ratio in comparison with AR: 1.4 *

## CC(C)C[C@@H]1NC(=O)[C@H](C(C)C)NC(=O)CNC(=O)[C@H](CCCNC(=N)N)NC(=O)[C@H](C(C)C)NC(=O)[C@H](CCCNC(=N)N)NC(=O)[C@H](C(C)C)NC(=O)[C@H](Cc2ccc(O)cc2)NC(=O)[C@H](C)NC(=O)[C@H](Cc2ccc(O)cc2)NC(=O)[C@H](C(C)C)NC(=O)[C@@H]2CSSC[C@H](NC(=O)[C@H](CCCNC(=N)N)NC(=O)[C@H](CCCNC(=N)N)NC(=O)[C@H](Cc3ccc(O)cc3)NC(=O)[C@H](CCCNC(=N)N)NC(=O)[C@H](C(C)C)NC1=O)C(=O)N[C@@H](Cc1c[nH]c3ccccc13)C(=O)N[C@@H](CCCNC(=N)N)C(=O)N[C@@H](Cc1c[nH]c3ccccc13)C(=O)N2 [ARcycl] (HELM PEPTIDE1{R.W.C.V.Y.A.Y.V.R.V.R.G.V.L.V.R.Y.R.R.C.W}$PEPTIDE1,PEPTIDE1,3:R3-20:R3|PEPTIDE1,PEPTIDE1,1:R1-21:R2$$$V2.0)
Human red blood cells
  SI2 improvement ratio in comparison with AR: 1.1
  SI3 improvement ratio in comparison with AR: 1.6
[1]
  SI1 improvement ratio in comparison with AR: 1.1
[2]
  G-MIC improvement ratio in comparison with AR: 1.2 *

## CC(C)C[C@@H]1NC(=O)[C@H](C(C)C)NC(=O)CNC(=O)[C@H](CCCNC(=N)N)NC(=O)[C@H](C(C)C)NC(=O)[C@H](CCCNC(=N)N)NC(=O)[C@H](C(C)C)NC(=O)[C@H](CCCNC(=N)N)NC(=O)[C@H](Cc2ccc(O)cc2)NC(=O)[C@H](CCCNC(=N)N)NC(=O)[C@H](CCCNC(=N)N)NC(=O)[C@@H](NC(=O)[C@H](Cc2c[nH]c3ccccc23)NC(=O)[C@@H](N)CCCNC(=N)N)CSSC[C@@H](C(=O)N[C@@H](Cc2c[nH]c3ccccc23)C(=O)O)NC(=O)[C@H](C(C)C)NC(=O)[C@H](Cc2ccc(O)cc2)NC(=O)[C@H](C)NC(=O)[C@H](Cc2ccc(O)cc2)NC(=O)[C@H](C(C)C)NC1=O [ARin-s] (HELM PEPTIDE1{R.W.C.R.R.Y.R.V.R.V.R.G.V.L.V.Y.A.Y.V.C.W}$PEPTIDE1,PEPTIDE1,3:R3-20:R3$$$V2.0; N-terminus assumed)
Human red blood cells
  SI3 improvement ratio in comparison with AR: ≤0.4
  SI3 assessment HC15/G-MIC: ≤1.3
[1]
  SI1 improvement ratio in comparison with AR: ≤0.4
  SI1 assessment IC50/G-MIC: ≤2.9
[2]
  G-MIC improvement ratio in comparison with AR: ≤0.2

## CC(C)C[C@H](NC(=O)[C@@H](NC(=O)CNC(=O)[C@H](CCCNC(=N)N)NC(=O)[C@@H](NC(=O)[C@H](CCCNC(=N)N)NC(=O)[C@@H](NC(=O)[C@H](Cc1ccc(O)cc1)NC(=O)[C@H](C)NC(=O)[C@H](Cc1ccc(O)cc1)NC(=O)[C@@H](NC(=O)[C@H](CSCC(N)=O)NC(=O)[C@H](Cc1c[nH]c2ccccc12)NC(=O)[C@@H](N)CCCNC(=N)N)C(C)C)C(C)C)C(C)C)C(C)C)C(=O)N[C@H](C(=O)N[C@@H](CCCNC(=N)N)C(=O)N[C@@H](Cc1ccc(O)cc1)C(=O)N[C@@H](CCCNC(=N)N)C(=O)N[C@@H](CCCNC(=N)N)C(=O)N[C@@H](CSCC(N)=O)C(=O)N[C@@H](Cc1c[nH]c2ccccc12)C(=O)O)C(C)C [ARlin] (H-RWC(Cam)VYAYVRVRGVLVRYRRC(Cam)W-OH; N-terminus assumed)
Human red blood cells
  SI2 improvement ratio in comparison with AR: >1.0
  SI3 improvement ratio in comparison with AR: 2.5 *
  SI3 assessment HC15/G-MIC: 9.5
  SI2 assessment HC50/G-MIC: >25.6
[1]
  SI1 improvement ratio in comparison with AR: >1.9 *
  SI1 assessment IC50/G-MIC: >12.8
[2]
  G-MIC improvement ratio in comparison with AR: 0.9

## CC(C)C[C@@H]1NC(=O)[C@H](C(C)C)NC(=O)[C@H](CCCNC(=N)N)NC(=O)[C@H](Cc2ccc(O)cc2)NC(=O)[C@H](CCCNC(=N)N)NC(=O)[C@H](CCCNC(=N)N)NC(=O)[C@@H](NC(=O)[C@@H](N)Cc2c[nH]c3ccccc23)CSSC[C@H](NC(=O)[C@@H](N)Cc2c[nH]c3ccccc23)C(=O)N[C@@H](CCCNC(=N)N)C(=O)N[C@@H](CCCNC(=N)N)C(=O)N[C@@H](Cc2ccc(O)cc2)C(=O)N[C@@H](CCCNC(=N)N)C(=O)N[C@@H](C(C)C)C(=O)N[C@@H](CC(C)C)C(=O)N[C@@H](C(C)C)C(=O)N[C@H](C(=O)N[C@@H](CN)C(N)=O)CCCNC(=O)[C@H](C(C)C)NC1=O [ARs-C-B] (HELM PEPTIDE1{W.C.R.R.Y.R.V.L.V.[Orn].[NC[C@H](N[*:1])C(=O)[*:2]].[am]}|PEPTIDE2{W.C.R.R.Y.R.V.L.V}$PEPTIDE1,PEPTIDE2,2:R3-2:R3|PEPTIDE1,PEPTIDE2,10:R3-9:R2$$$V2.0; N-terminus assumed)
Human red blood cells
  SI2 improvement ratio in comparison with AR: >0.7
  SI3 improvement ratio in comparison with AR: 3.3 *
  SI3 assessment HC15/G-MIC: 12.7
  SI2 assessment HC50/G-MIC: >18.1
[1]
  SI1 improvement ratio in comparison with AR: 1.3 *
  SI1 assessment IC50/G-MIC: 8.8
[2]
  G-MIC improvement ratio in comparison with AR: 0.6
